Experimental findings from article PMC5880945, “D-Arg^0-Bradykinin-Arg-Arg, a Latent Vasoactive Bradykinin B2 Receptor Agonist Metabolically Activated by Carboxypeptidases” (Frontiers in Pharmacology, 2018) are described below.

Chains of the proteins cited; added tags and fusions are not shown. Lines headed by an entry give the natural chain unless they say otherwise; changes in a name come on top.
UniProt P01042: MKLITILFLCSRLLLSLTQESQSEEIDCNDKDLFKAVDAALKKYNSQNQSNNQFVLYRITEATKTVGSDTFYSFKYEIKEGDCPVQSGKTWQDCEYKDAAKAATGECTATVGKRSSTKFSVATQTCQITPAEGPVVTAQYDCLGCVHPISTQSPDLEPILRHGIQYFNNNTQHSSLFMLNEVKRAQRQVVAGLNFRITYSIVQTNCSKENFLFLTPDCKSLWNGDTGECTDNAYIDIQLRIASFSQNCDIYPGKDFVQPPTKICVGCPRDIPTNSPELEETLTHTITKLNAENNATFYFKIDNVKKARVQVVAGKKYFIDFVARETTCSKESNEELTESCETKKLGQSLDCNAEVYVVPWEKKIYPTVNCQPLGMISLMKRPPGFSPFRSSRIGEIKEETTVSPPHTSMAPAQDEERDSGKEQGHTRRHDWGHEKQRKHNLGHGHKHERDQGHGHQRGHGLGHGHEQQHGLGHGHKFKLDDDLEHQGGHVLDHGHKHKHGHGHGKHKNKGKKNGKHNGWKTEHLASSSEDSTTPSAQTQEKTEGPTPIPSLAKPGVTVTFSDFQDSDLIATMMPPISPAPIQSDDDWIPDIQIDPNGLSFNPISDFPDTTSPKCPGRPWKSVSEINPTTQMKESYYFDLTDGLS

These are yes or no findings as the source states them, for the method shown. Some entries that bind do so weakly or less than the wild type. Sequences can lack the tags named with a protein.

The experiment addresses T1, myc-tagged rat B2R construction (rat, UniProt P25023 1-396).
T1 construct: bradykinin B2 receptor, rat; also called rat myc-B2R; rat recombinant myc-B2R; source: HEK 293 cells stably expressing the construction, adherent intact cells
T1 sequence (looked up): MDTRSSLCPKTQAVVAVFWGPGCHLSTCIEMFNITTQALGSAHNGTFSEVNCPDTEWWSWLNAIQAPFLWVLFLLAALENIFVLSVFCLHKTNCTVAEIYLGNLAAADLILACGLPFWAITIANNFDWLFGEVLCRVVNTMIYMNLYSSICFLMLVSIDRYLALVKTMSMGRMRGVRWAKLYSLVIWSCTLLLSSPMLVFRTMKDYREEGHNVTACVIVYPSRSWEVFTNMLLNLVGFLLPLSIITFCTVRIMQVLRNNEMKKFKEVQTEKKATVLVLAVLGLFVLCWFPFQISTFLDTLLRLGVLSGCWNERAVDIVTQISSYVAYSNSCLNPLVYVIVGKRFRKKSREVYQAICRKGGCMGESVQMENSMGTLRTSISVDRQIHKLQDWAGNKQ
Briefly: radioligand binding; competition of the binding of 3 nM [^3H]BK to adherent intact HEK 293 cells stably expressing myc-tagged rat B2R by unlabeled peptides; 0°C; peptidase inhibitors including captopril and PMSF; one-site competition fit; only the binder purified.

As for “[^3H]bradykinin (from UniProt P01042 381-389) (peptide)”, the binding entry was “binds”.
